Data: patent publication US20090105072A1, “2-(Pyridin-2-Yl)-Pyrimidines for Use as Fungicides” (priority 2007, published 2009)
Some entries share one result that the patent states for a list of compounds. For at least one compound, name, drawing or mass did not settle the structure.

Key:
Botrytis cinerea = assay: Activity against gray mold on bell pepper leaves caused by Botrytis cinerea, 1 day protective application; format: in vivo; settings: 250 ppm, visual after 5 days, untreated plants 100% infected
Pyrenophora teres = assay: Activity against net blotch of barley caused by Pyrenophora teres, 1 day protective application; format: in vivo; settings: 250 ppm, barley seedlings, visual after 6 days, untreated plants 90% infected

Compound	extent of the fungal infection on the leaves (Botrytis cinerea)	infection of the entire leaf area (Pyrenophora teres)
Cc1ccc(-c2ncc3c(n2)CCC3)nc1-c1cccs1 [Example 2]	at most 20%	at most 20%
Cc1ccc(-c2ncc3c(n2)CCC3)nc1-c1ccsc1 [Example 3]	at most 20%	at most 20%
Cc1ccc(-c2ncc3c(n2)CCC3)nc1-c1sccc1C [Example 4]	at most 20%	at most 20%
Cc1csc(-c2nc(-c3ncc4c(n3)CCC4)ccc2C)c1 [Example 5]	at most 20%	–
Cc1ccc(-c2nc(-c3ncc4c(n3)CCC4)ccc2C)s1 [Example 6]	at most 20%	at most 20%
Cc1cscc1-c1nc(-c2ncc3c(n2)CCC3)ccc1C [Example 8]	at most 20%	at most 20%
Cc1ccc(-c2ncc3c(n2)CCC3)nc1-c1cccnc1Cl [Example 12]	–	at most 20%
Cc1ccc(-c2ncc3c(n2)CCC3)nc1-c1ccc(Cl)nc1 [Example 13]	at most 20%	–
Cc1ccc(-c2ncc3c(n2)CCC3)nc1-c1ccc(F)nc1 [Example 14]	at most 20%	at most 20%
COc1ccc(-c2nc(-c3ncc4c(n3)CCC4)ccc2C)cn1 [Example 15]	at most 20%	at most 20%
Cc1ccc(-c2ncc3c(n2)CCCC3)nc1-c1cccnc1 [Example 19]	at most 20%	–
Cc1ccc(-c2ncc3c(n2)CCCC3)nc1-c1ccncc1 [Example 20]	at most 20%	at most 20%
Cc1ccc(-c2ncc3c(n2)CCCC3)nc1-c1cccnc1Cl [Example 21]	at most 20%	–
Cc1ccc(-c2ncc3c(n2)CCCC3)nc1-c1ccc(Cl)nc1 [Example 22]	at most 20%	–
Cc1ccc(-c2ncc3c(n2)CCCC3)nc1-c1ccc(F)nc1 [Example 23]	at most 20%	at most 20%
COc1ccc(-c2nc(-c3ncc4c(n3)CCCC4)ccc2C)cn1 [Example 24]	at most 20%	at most 20%
Cc1ccc(-c2ncc3c(n2)CCCC3)nc1-c1ccoc1 [Example 26]	at most 20%	–
Cc1ccc(-c2ncc3c(n2)CCCC3)nc1-c1cccs1 [Example 27]	at most 20%	at most 20%
Cc1ccc(-c2ncc3c(n2)CCCC3)nc1-c1ccsc1 [Example 28]	at most 20%	at most 20%
Cc1ccc(-c2ncc3c(n2)CCCC3)nc1-c1sccc1C [Example 29]	at most 20%	at most 20%
Cc1csc(-c2nc(-c3ncc4c(n3)CCCC4)ccc2C)c1 [Example 30]	–	at most 20%
Cc1ccc(-c2nc(-c3ncc4c(n3)CCCC4)ccc2C)s1 [Example 31]	at most 20%	at most 20%
Cc1cscc1-c1nc(-c2ncc3c(n2)CCCC3)ccc1C [Example 32]	at most 20%	at most 20%
CC(=O)c1ccc(-c2nc(-c3ncc4c(n3)CCCC4)ccc2C)s1 [Example 34]	at most 20%	at most 20%

Compound	extent of the fungal infection on the leaves (Botrytis cinerea)	infection of the entire leaf area (Pyrenophora teres)
CON=C(C)c1ccc(-c2nc(-c3ncc4c(n3)CCCC4)ccc2C)s1 [Example 35]	at most 20%	at most 20%
CCON=C(C)c1ccc(-c2nc(-c3ncc4c(n3)CCCC4)ccc2C)s1 [Example 36]	at most 20%	at most 20%
CCCCCCON=C(C)c1ccc(-c2nc(-c3ncc4c(n3)CCCC4)ccc2C)s1 [Example 37]	at most 20%	–
Cc1ccc(-c2ncc3c(n2)CCCCC3)nc1-c1cccnc1 [Example 38]	at most 20%	at most 20%
Cc1ccc(-c2ncc3c(n2)CCCCC3)nc1-c1ccncc1 [Example 39, 2-(3-Methyl-[2,4′]-bipyridinyl-6-yl)-,6,7,8,9-tetrahydro-5H-cyclohepta-pyrimidine]	at most 20%	at most 20%
Cc1ccc(-c2ncc3c(n2)CCCCC3)nc1-c1cccnc1Cl [Example 41]	at most 20%	at most 20%
Cc1ccc(-c2ncc3c(n2)CCCCC3)nc1-c1ccc(Cl)nc1 [Example 42]	–	at most 20%
Cc1ccc(-c2ncc3c(n2)CCCCC3)nc1-c1ccc(F)nc1 [Example 43]	–	at most 20%
COc1ccc(-c2nc(-c3ncc4c(n3)CCCCC4)ccc2C)cn1 [Example 44]	at most 20%	at most 20%
Cc1ccc(-c2ncc3c(n2)CCCCC3)nc1-c1ccoc1 [Example 45]	at most 20%	at most 20%
Cc1ccc(-c2ncc3c(n2)CCCCC3)nc1-c1cccs1 [Example 46]	at most 20%	at most 20%
Cc1ccc(-c2ncc3c(n2)CCCCC3)nc1-c1ccsc1 [Example 47]	at most 20%	at most 20%
Cc1ccc(-c2ncc3c(n2)CCCCC3)nc1-c1sccc1C [Example 48]	at most 20%	at most 20%
Cc1csc(-c2nc(-c3ncc4c(n3)CCCCC4)ccc2C)c1 [Example 49]	at most 20%	at most 20%
Cc1cscc1-c1nc(-c2ncc3c(n2)CCCCC3)ccc1C [Example 50]	at most 20%	at most 20%
CC(=O)c1ccc(-c2nc(-c3ncc4c(n3)CCCCC4)ccc2C)s1 [Example 52]	at most 20%	at most 20%
CON=C(C)c1ccc(-c2nc(-c3ncc4c(n3)CCCCC4)ccc2C)s1 [Example 53]	–	at most 20%
CCON=C(C)c1ccc(-c2nc(-c3ncc4c(n3)CCCCC4)ccc2C)s1 [Example 54]	–	at most 20%
CCCCCCON=C(C)c1ccc(-c2nc(-c3ncc4c(n3)CCCCC4)ccc2C)s1 [Example 55]	–	at most 20%
Cc1ccc(-c2ncc3c(n2)CCC(C)(C)C3)nc1-c1cccnc1 [Example 56]	–	at most 20%
Cc1ccc(-c2ncc3c(n2)CCC(C)(C)C3)nc1-c1cccnc1Cl [Example 59]	–	at most 20%
Cc1ccc(-c2ncc3c(n2)CCC(C)(C)C3)nc1-c1ccc(Cl)nc1 [Example 60]	–	at most 20%
Cc1ccc(-c2ncc3c(n2)CCC(C)(C)C3)nc1-c1ccsc1 [Example 65]	–	at most 20%
Cc1ccc(-c2ncc3c(n2)CCC(C)(C)C3)nc1-c1sccc1C [Example 67]	–	at most 20%
